Test results from paper PMC5663480, “Structural inhibition of dynamin-mediated membrane fission by endophilin” (eLife, 2017).
These are yes or no findings as the source states them, for the method shown. Some results given as binding are weak or reduced against the parent protein; the word gives no strength.

By UniProt entry, the sequences of proteins in these tests, tags left out.
UniProt O35179: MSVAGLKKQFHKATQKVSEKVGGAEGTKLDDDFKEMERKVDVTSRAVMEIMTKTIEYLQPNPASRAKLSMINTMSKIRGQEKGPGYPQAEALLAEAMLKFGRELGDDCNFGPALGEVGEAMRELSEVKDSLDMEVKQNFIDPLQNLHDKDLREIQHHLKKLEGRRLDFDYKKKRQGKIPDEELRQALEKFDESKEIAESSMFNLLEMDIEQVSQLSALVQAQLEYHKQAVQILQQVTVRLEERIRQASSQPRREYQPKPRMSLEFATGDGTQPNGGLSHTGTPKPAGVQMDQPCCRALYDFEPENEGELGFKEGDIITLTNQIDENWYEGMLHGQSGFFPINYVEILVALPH

T1: Human dynamin1 (human) (UniProt Q05193)
T1 sequence: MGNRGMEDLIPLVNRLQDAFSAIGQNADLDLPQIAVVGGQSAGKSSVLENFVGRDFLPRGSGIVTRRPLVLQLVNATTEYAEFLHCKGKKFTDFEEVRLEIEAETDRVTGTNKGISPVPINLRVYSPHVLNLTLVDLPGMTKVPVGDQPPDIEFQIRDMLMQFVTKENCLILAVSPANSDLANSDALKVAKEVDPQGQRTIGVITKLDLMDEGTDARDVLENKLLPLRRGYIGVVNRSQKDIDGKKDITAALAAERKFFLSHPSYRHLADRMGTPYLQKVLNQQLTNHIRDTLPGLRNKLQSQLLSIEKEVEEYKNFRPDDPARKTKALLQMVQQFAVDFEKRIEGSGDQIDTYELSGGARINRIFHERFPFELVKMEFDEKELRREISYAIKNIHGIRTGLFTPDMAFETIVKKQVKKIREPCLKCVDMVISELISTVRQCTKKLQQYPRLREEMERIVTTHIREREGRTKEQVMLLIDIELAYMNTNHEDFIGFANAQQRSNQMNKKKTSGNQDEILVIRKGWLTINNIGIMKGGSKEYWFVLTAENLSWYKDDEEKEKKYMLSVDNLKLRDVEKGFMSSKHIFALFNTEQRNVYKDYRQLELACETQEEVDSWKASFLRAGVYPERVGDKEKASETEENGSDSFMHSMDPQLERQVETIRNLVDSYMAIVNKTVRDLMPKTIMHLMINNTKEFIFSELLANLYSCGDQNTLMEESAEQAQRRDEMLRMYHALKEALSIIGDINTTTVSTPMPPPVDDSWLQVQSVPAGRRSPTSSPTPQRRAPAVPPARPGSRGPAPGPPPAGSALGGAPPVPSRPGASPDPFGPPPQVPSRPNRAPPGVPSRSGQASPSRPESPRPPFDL


Experiments:
Human dynamin1 (human) [1] = biological target: T1, Human dynamin1 (human); experiment: cryo-EM structure; 2D class averages only (no 3D reconstruction) of membrane-bound co-complex: 6 µM dynamin and 6 µM endophilin with 2 mM GDP, 100% DOPS liposomes (0.63 g/l), GTPase buffer (20 mM HEPES, 100 mM NaCl, 1 mM MgCl2, pH 7.4), 30 min room temperature; tubules pelleted; 0.14% glutaraldehyde on the grid; negative stain in GDP and GMPPCP too; both purified
Human dynamin1 (human) [2] = biological target: T1, Human dynamin1 (human); experiment: cryo-EM structure; 2D class averages of dynamin-only helices on lipid tubules: 8 µM protein with 2 mM GMPPCP, 100% DOPS liposomes (0.75 g/l), GTPase buffer, 30 min room temperature; both purified

Row | binding (Human dynamin1 (human) [1]) | binding (Human dynamin1 (human) [2]) | Molecule
1 | binds |  | Rat endophilinA1 (from UniProt O35179 1-352)
2 |  | binds | Human dynamin1 (enzyme, UniProt Q05193 1-864) MGNRGMEDLIPLVNRLQDAFSAIGQNADLDLPQIAVVGGQSAGKSSVLENFVGRDFLPRGSGIVTRRPLVLQLVNATTEYAEFLHCKGKKFTDFEEVRLEIEAETDRVTGTNKGISPVPINLRVYSPHVLNLTLVDLPGMTKVPVGDQPPDIEFQIRDMLMQFVTKENCLILAVSPANSDLANSDALKVAKEVDPQGQRTIGVITKLDLMDEGTDARDVLENKLLPLRRGYIGVVNRSQKDIDGKKDITAALAAERKFFLSHPSYRHLADRMGTPYLQKVLNQQLTNHIRDTLPGLRNKLQSQLLSIEKEVEEYKNFRPDDPARKTKALLQMVQQFAVDFEKRIEGSGDQIDTYELSGGARINRIFHERFPFELVKMEFDEKELRREISYAIKNIHGIRTGLFTPDMAFETIVKKQVKKIREPCLKCVDMVISELISTVRQCTKKLQQYPRLREEMERIVTTHIREREGRTKEQVMLLIDIELAYMNTNHEDFIGFANAQQRSNQMNKKKTSGNQDEILVIRKGWLTINNIGIMKGGSKEYWFVLTAENLSWYKDDEEKEKKYMLSVDNLKLRDVEKGFMSSKHIFALFNTEQRNVYKDYRQLELACETQEEVDSWKASFLRAGVYPERVGDKEKASETEENGSDSFMHSMDPQLERQVETIRNLVDSYMAIVNKTVRDLMPKTIMHLMINNTKEFIFSELLANLYSCGDQNTLMEESAEQAQRRDEMLRMYHALKEALSIIGDINTTTVSTPMPPPVDDSWLQVQSVPAGRRSPTSSPTPQRRAPAVPPARPGSRGPAPGPPPAGSALGGAPPVPSRPGASPDPFGPPPQVPSRPNRAPPGVPSRSGQASPSRPESPRPPFDL
